No constants are given. Whether binding was seen depends on the method and setting. For some of these results: In cells and extracts the contact can be indirect. Some entries that bind do so weakly or less than the wild type.
Experiments:
[1] = biological target: P^456, C-terminal fragment of properdin (res. 256-469) (human) (UniProt P27918); experiment: pull-down; large-scale (1 L) co-expression in HEK293-EBNA, P^456 with C-terminal 6xHis-tag, no tag on the N-terminal fragment; Ni-Sepharose Excel (IMAC) from the supernatant, washes with 500 mM NaCl
[2] = biological target: P^456, C-terminal fragment of properdin (res. 256-469) (human) (UniProt P27918); experiment: crystal structure; co-expressed and co-purified P^N1/456 (0.2 M potassium sulfate, 20% PEG 3350; 2.0-2.9 Å) and P^N12/456 (100 mM sodium citrate pH 5.5, 20% PEG 3000; 2.5-3.9 Å), 18°C; both purified
[3] = biological target: P^456, C-terminal fragment of properdin (res. 256-469) (human) (UniProt P27918); experiment: pull-down; small-scale (4 ml) co-expression of N- and C-terminal fragments in HEK293-EBNA, one of the two with a 6x-His tag; Ni-Sepharose Excel from the supernatant, washes with 500 mM NaCl and 10 mM imidazole; no further purification

Amino acid sequences for entries named in this document (tags omitted). A change or cut given only in a name is not applied to a line headed by its entry. Chains listed by the source or under a name are the forms on record and can include a tag or linker.
P^456, C-terminal fragment of properdin (res. 256-469) (P27918, form named): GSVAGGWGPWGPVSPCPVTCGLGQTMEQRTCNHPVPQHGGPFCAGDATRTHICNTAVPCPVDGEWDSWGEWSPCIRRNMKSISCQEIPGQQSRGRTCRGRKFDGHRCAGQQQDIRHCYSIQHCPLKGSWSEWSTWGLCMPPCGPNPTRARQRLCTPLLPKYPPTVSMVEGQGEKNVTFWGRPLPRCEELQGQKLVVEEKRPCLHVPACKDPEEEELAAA
P^N123, N-terminal fragment of properdin (res. 28-255) (P27918, form named): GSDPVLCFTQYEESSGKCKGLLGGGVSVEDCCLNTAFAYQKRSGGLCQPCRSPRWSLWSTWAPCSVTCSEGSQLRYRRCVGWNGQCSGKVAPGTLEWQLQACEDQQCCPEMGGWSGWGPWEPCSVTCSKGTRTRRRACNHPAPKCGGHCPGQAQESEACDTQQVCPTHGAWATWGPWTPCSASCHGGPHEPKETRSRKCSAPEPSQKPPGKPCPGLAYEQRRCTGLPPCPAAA
P^N1, N-terminal fragment of properdin (res. 28-132) (P27918, form named): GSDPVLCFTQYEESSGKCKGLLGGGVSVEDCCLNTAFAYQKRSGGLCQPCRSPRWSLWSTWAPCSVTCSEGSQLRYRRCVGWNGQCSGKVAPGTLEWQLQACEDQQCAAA

Row | binding [1] | binding [2] | binding [3] | Substance
1 | binds | binds | binds | P^N12, N-terminal fragment of properdin (res. 28-191) (from UniProt P27918 28-191) (domain or fragment)
2 |  |  | binds | P^N123, N-terminal fragment of properdin (res. 28-255) (from UniProt P27918 28-255) (domain or fragment)
3 | binds | binds | binds | P^N1, N-terminal fragment of properdin (res. 28-132) (from UniProt P27918 28-132) (domain or fragment)

Reference: PMC6736995, “Insights Into Enhanced Complement Activation by Structures of Properdin and Its Complex With the C-Terminal Domain of C3b” (Frontiers in Immunology, 2019)
